Measured values as given in PubChem BioAssay AID504444 (National Center for Advancing Translational Sciences (NCATS), 2011).
Hit rate of the full screen: of about 360,000 compounds, about 7,500 (2.1%) were called active. The inconclusive results got no clear call from the source; some entries with a clear call stand among them for comparison. Calls follow the shape of the dose curve; as a rule, active = well fitted inhibition curve with a large enough effect; inconclusive = small, poorly fitted or top-dose-only effect, or effect the other way; inactive = flat fitted curve, though single readings scatter. Where the call is inconclusive, the potency comes from a doubtful curve fit.
Potency is read from the fitted curve at half-maximal effect.

Test: Nrf2 qHTS screen for inhibitors; also: nearly all actives have a fitted effect of over 60% in size
Conditions: A549 ARE-Fluc reporter, luciferase luminescence, 18-24 h; series mostly up to 46 µM
Procedure, shortened: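 Cells were seeded and rested 2 h, then exposed to compounds for 18-24 h. CellTiter-Fluor was read first as a viability measure. BugLite was added 15 min before the final luminescent read of ARE-luciferase activity in A549 cells.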
With `CCOC(=O)c1nc(N)c(C(=O)OCC)[nH]1` the Potency was “inactive”.
For `COc1cccc(NC(=O)c2cccc(N3C(=O)C4C5C=CC(C5)C4C3=O)c2)c1` (configuration not stated), the Potency was active: 18.4 µM.
For `Cc1nn2cc(-c3ccc(-c4ccccc4)cc3)nc2s1`, the Potency was inconclusive: 2.31 µM [activator, partial curve, poor fit].
For `COc1ccccc1N1CCN(C(=O)CN2C(=O)c3cccc4cccc(c34)C2=O)CC1`, the Potency was “inactive”.
In the case of `COc1ccc(NC(=O)c2sc(-c3ccccc3)nc2C)c(OC)c1`, the Potency is reported as inconclusive: 29.1 µM [falling, single point].
With `CCn1c(SCc2ccccc2)nc2cc(OC)c(OC)cc2c1=O` the Potency was inconclusive: 20.6 µM [falling, partial curve, poor fit].
For `CCc1ccc(-n2c(=O)c3cccnc3n2CC(=O)NCc2ccc(C)cc2)cc1`, the Potency was inconclusive: 25.9 µM [activator, single point].
In the case of `CCN1/C(=C/C=C/c2sc3ccccc3[n+]2CC)Sc2ccccc21`, the Potency is reported as active: 1.3 µM.
For `Cc1ccc2c(C)c(C(=O)N3CCN(C4CCS(=O)(=O)C4)CC3)oc2c1C` (configuration not stated), the Potency was inconclusive: 25.9 µM [activator, single point].
In the case of `Cc1cccc(C2(c3cccc(C)c3)CC2C(=O)Nc2ccc([N+](=O)[O-])cc2O)c1` (configuration not stated), the Potency is reported as inconclusive: 25.9 µM [falling, single point].
With `c1ccc2c3c(cc(N4CCOCC4)c2c1)OC1(N2CCOCC2)CCCCC1O3` (configuration not stated) the Potency was inconclusive: 29.1 µM [falling, single point].
For `COP(=O)(OC)c1nc(-c2cccc3ccccc23)oc1NCc1ccccc1`, the Potency was inconclusive: 25.9 µM [falling, single point].
With `CC(=O)Nc1ccc(C(=O)/C=C/c2ccc[nH]2)cc1` the Potency was inconclusive: 29.1 µM [activator, single point].
With `COc1ccc(C(=O)O/N=C(\N)Cc2ccc(Cl)c(Cl)c2)cc1OC` the Potency was inconclusive: 29.1 µM [falling, single point].
For `COc1cc2cc(CN(CCCN3CCOCC3)C(=O)Nc3ccccc3F)c(=O)[nH]c2cc1OC`, the Potency was “inactive”.
In the case of `N#CC1=C2Sc3ccccc3N2CCCC1=O`, the Potency is reported as inconclusive: 8.2 µM [activator, partial curve].
For `Cc1nc(Nc2ccc(S(=O)(=O)N3CCCC3)cc2)c2nnn(Cc3ccccc3)c2n1`, the Potency was inconclusive: 3.26 µM [falling, full curve, poor fit].
For `CCOC(=O)c1cccc(NC(=O)CNC(=O)C2CCCCC2)c1`, the Potency was inconclusive: 25.9 µM [falling, single point].
With `CCCC(=O)N(Cc1cc(=O)[nH]c2ccccc12)c1ccccc1OC` the Potency was inconclusive: 4.11 µM [falling, partial curve].
With `CCc1ccc(OCC(=O)NC(NC(=S)Nc2ccccc2C)C(Cl)(Cl)Cl)cc1` (configuration not stated) the Potency was inconclusive: 25.9 µM [falling, single point].
In the case of `CC(=O)c1ccc(NC(=O)CCc2nc3sc4c(c3c(=O)[nH]2)CCCC4)cc1`, the Potency is reported as inconclusive: 18.4 µM [falling, single point].
In the case of `O=C(NC(=S)Nc1ccc2oc(-c3cccnc3)nc2c1)c1cccc(Cl)c1`, the Potency is reported as inconclusive: 4.61 µM [falling, full curve].
For `O=C(Nc1ccc2c(c1)OCCO2)c1cccc(Cl)c1Cl`, the Potency was inconclusive: 5.17 µM [activator, partial curve, poor fit].
In the case of `CCN1C=CC(=C2C(=O)c3ccccc3C2=O)C=C1`, the Potency is reported as active: 1.64 µM.
In the case of `COc1ccccc1C(=O)NNC(=O)c1ccc(Br)o1`, the Potency is reported as inconclusive: 29.1 µM [activator, single point].
With `Cc1ccc(S(=O)(=O)/N=C(\N)Nc2nc(C)c3ccc(C)cc3n2)cc1` the Potency was active: 8.2 µM.
In the case of `Cc1nc(/C=C/c2ccccc2)[nH]c(=O)c1-c1ccccc1`, the Potency is reported as inconclusive: 23.1 µM [activator, single point].
In the case of `Cc1ccc(C2SCCN2C(=O)c2ccc([N+](=O)[O-])cc2)cc1` (configuration not stated), the Potency is reported as inconclusive: 36.6 µM [falling, partial curve, poor fit].
With `CCCCn1cnc2cc(NCc3ccncc3)ccc21` the Potency was “inactive”.
With `O=C1OC(/C(=C\Nc2ccc(F)cc2F)[N+](=O)[O-])c2ccccc21` (configuration not stated) the Potency was inconclusive: 18.4 µM [falling, single point].
In the case of `Cc1ccc(NC(=O)CSc2nc(-c3ccccc3Cl)nc3cc(=O)[nH]n23)c(C)c1`, the Potency is reported as inconclusive: 6.51 µM [falling, single point].
For `COc1ccc(C(=O)NC(=S)NNC(=O)c2ccc(C)cc2)cc1`, the Potency was inconclusive: 20.6 µM [falling, single point].
For `CCc1cccc(Nc2ncnc3onc(-c4ccc(F)cc4)c23)c1`, the Potency was inconclusive: 2.31 µM [activator, partial curve, poor fit].
With `CCN(CC)c1nc(OCCNC(=O)Nc2ccccc2)nc(N(CC)CC)n1` the Potency was inconclusive: 23.1 µM [falling, single point].
With `CCOC(=O)C1Nc2ccc(C)cc2C2C=CCC12` (configuration not stated) the Potency was “inactive”.
In the case of `CCOc1ccccc1C(=O)NC1CC2CCCC(C1)N2Cc1nnnn1Cc1ccco1` (configuration not stated), the Potency is reported as “inactive”.
For `O=C1N=c2ccccc2=C1c1c(O)[nH]c2c(C(F)(F)F)cccc12`, the Potency was “inactive”.
With `O=C(CSc1nc(-c2ccc(F)cc2)cc(C(F)(F)F)n1)NCCc1ccccc1` the Potency was inconclusive: 2.06 µM [falling, full curve].
For `O=C(CCC(=O)N1CCOc2ccc(Cl)cc21)N1CCN(c2ccccn2)CC1`, the Potency was inconclusive: 0.461 µM [falling, partial curve, poor fit].
For `O=C(CCCn1c(=S)[nH]c2ccc(Br)cc2c1=O)N1CCN(c2ccccn2)CC1`, the Potency was inconclusive: 18.4 µM [falling, partial curve, poor fit].
In the case of `C=CCNC(=S)Nc1nc2c(cc1C(=O)OCC)CCCC2`, the Potency is reported as inconclusive: 29.1 µM [activator, single point].
With `Nc1ccccc1C(=O)Nc1cccc(C(=O)O)c1` the Potency was inconclusive: 32.6 µM [activator, single point].
With `CCN(CC)S(=O)(=O)c1cc(NC(=O)CN2CCN(c3ccccn3)CC2)ccc1C` the Potency was inconclusive: 16.4 µM [falling, single point].
In the case of `Cc1nc(-c2ccc(Cl)cc2)sc1C1(C)CC(c2ccccc2Br)=NO1` (configuration not stated), the Potency is reported as “inactive”.
For `CCC(C)c1ccc(C(C)NC(=S)NC2CCCCC2)cc1` (configuration not stated), the Potency was inconclusive: 23.1 µM [falling, single point].
For `N#C/C(=C/c1ccc(N2CCOCC2)o1)c1ccc(Cl)cc1`, the Potency was inconclusive: 6.51 µM [activator, partial curve].
For `CC1CC(C)CN(CCOc2cccc3ccccc23)C1` (configuration not stated), the Potency was inconclusive: 20.6 µM [activator, single point].
In the case of `Fc1ccccc1/C=C1\CCCC2=C1NC(=S)NC2c1ccccc1F` (configuration not stated), the Potency is reported as active: 8.2 µM.
With `COc1ccc(COc2cc(-c3cccc(OC)c3)nc3ccc(NC(=O)C(C)C)cc23)cc1` the Potency was inconclusive: 8.2 µM [falling, partial curve].
In the case of `COC(=O)[C@]1(Cc2ccccc2)N[C@H](c2ccc(-c3cccc(Cl)c3)c(OC)c2)[C@@H]2C(=O)N(C)C(=O)[C@@H]21`, the Potency is reported as inconclusive: 7.31 µM [falling, partial curve, poor fit].
For `COc1cc(C(=O)Nc2nonc2-c2ccc(C)c(C)c2)cc(OC)c1OC`, the Potency was “inactive”.
In the case of `Cc1ccc(NC(=O)c2ccc(NC(=O)N3CCSc4ncccc43)cc2)c(C)c1`, the Potency is reported as “inactive”.
In the case of `COc1ccc(-c2csc(N3CCN(c4cc(C)nc5ccccc45)CC3)n2)cc1OC`, the Potency is reported as active: 13 µM.
For `O=C1NC2(CCCCCC2)C(=O)N1Cc1ccc(Cl)cc1Cl`, the Potency was inconclusive: 29.1 µM [falling, single point].
For `COc1ccccc1-n1c(SCC(=O)Nc2cccc(C)c2)nc2c(c1=O)SCC2`, the Potency was inconclusive: 32.6 µM [falling, partial curve, poor fit].
With `Cn1cc(S(=O)(=O)c2ccccc2)c(=O)c2cc(F)c(N3CCCCCC3)cc21` the Potency was inconclusive: 23.1 µM [falling, single point].
In the case of `Fc1c(F)c(F)c(N=Cc2ccc3ncccc3c2)c(F)c1F`, the Potency is reported as inconclusive: 13 µM [activator, partial curve, poor fit].
With `O=C(Cc1c(Cl)cccc1Cl)Nc1ccncc1Cl` the Potency was inconclusive: 25.9 µM [falling, partial curve, poor fit].
For `O=C(NC(=S)Nc1ccc(CN2CCCCC2)cc1)c1ccco1`, the Potency was inconclusive: 16.4 µM [activator, single point].
For `COc1ccc(CNC(=O)CCc2nc(-c3ccc(C)cc3)no2)c(OC)c1`, the Potency was inconclusive: 29.1 µM [falling, single point].
With `CC(C)(C)NC(=O)C(c1ccc(-c2ccccc2)cc1)N(C[C@H]1CC[C@@H]([C@@H]2CC[C@H](CO)O2)O1)C(=O)c1ccccc1F` (some centres not stated) the Potency was inconclusive: 29.1 µM [falling, single point].
In the case of `COc1ccc(/C=C/C(=O)NC(=S)NNC(=O)c2cnccn2)cc1`, the Potency is reported as inconclusive: 6.51 µM [falling, full curve].
For `COc1cc(CNCCN2CCOCC2)ccc1OCc1cccc(Cl)c1`, the Potency was “inactive”.
For `Cn1c(=O)n(C)c2cc(N3CCCCC3)c(NC(=O)c3ccc(C(C)(C)C)cc3)cc21`, the Potency was “inactive”.
In the case of `CCCCNC(=O)Nc1nnc(-c2ccc(OCC)cc2)o1`, the Potency is reported as “inactive”.
With `CC1=C(c2ccc(C)c(C)c2)S(=O)(=O)N=C1N1CCC(C(=O)NC(C)Cc2ccco2)CC1` (configuration not stated) the Potency was “inactive”.
With `COc1cccc(C(=O)Nc2ccccc2-c2nnc(-c3cccc(OC)c3)o2)c1` the Potency was inconclusive: 29.1 µM [falling, single point].
